{"source": "patent US20050208549A1", "about": "“Testing endosymbiont cellular organelles and compounds identifiable therewith” (priority 2000, published 2005)", "origin": "cited, not measured here", "conditions": "Distal pain, numbness, paraesthesia, reduced reflexes/power; ddC = d4T > ddI > 3TC; cited from earlier work", "note": "Some of these results come from one statement about several compounds together. For at least one compound, name, drawing or mass did not settle the structure.", "data": [{"smiles": "Cc1cn([C@H]2C=C[C@@H](CO)O2)c(=O)[nH]c1=O", "note": "[D4T]", "values": [{"measurement": "Rate (%) of mitochondrial toxicity, affected organ Nerve", "value": "10-30%"}]}]}
